1 molecule from publication PMC5940305, “The Rab11-binding protein RELCH/KIAA1468 controls intracellular cholesterol distribution” (The Journal of Cell Biology, 2018) can be followed below.

Amino acid sequences for entries named in this document (tags omitted). A change or cut given only in a name is not applied to a line headed by its entry.
UniProt Q15907: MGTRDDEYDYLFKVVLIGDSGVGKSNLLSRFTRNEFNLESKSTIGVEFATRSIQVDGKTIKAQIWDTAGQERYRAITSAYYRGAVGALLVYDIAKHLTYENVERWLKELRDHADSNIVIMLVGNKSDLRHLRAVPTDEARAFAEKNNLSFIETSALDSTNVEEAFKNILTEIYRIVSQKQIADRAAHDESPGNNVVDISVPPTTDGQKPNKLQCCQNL

Results are given in words; binding and its absence hold for the method and conditions named. Binding can be weak; no strength is given.

The target of the assay is Gal4BD-Rab11b, GTP-locked (UniProt Q15907). As to the kind of experiment: two-hybrid; S. cerevisiae PJ69-4A, Gal4AD (pACT2) RELCH constructs and Gal4BD (pFBT9) GTP-locked Rabs; growth on QDO plates, 3 d at 30°C.

B1: Gal4AD-RELCH, full length (protein, UniProt Q148V7 1-1216)
chain: MAAMAPGGGGSGSGVNPFLSDSDEDDDEVAATEDRRAGLRLGAGVGLDPGSAGSLSPQDPMALGSSARPGLAVEMSAAPAALGGSGETPARLSIDAIAAQLLRDQYLLTALELHTELLESGRELPRLRDYFSNPGNFERQSGTPPGMGAPGIPGASIVGGAGGREPSTTSGGGQLNRAGSISTLDSLDFARYSDDGNRETDERVAVLEFELRKAKETIQALRANLTKAAEHEVPLQERKNYKSSPEIQEPIKPLEKRALNFLVNEFLLKNNYKLTSITFSDENDDQDFELWDDVGLNIPKPPDLLQLYRDFGNHQVTGKDLVDVASGVDEDELEALTPILGNVPPTLDTPLPIENTLLVQKLEDKISLLNNEKWSLMEQIRRLESEMDILKAEHFATPAVGDSVQPSLVWSSQKDSEDNRQSPAVNSSDQEKTKDVHLEIPDAADSFIPKENSSGSFPRKEREELPPSSVSNKTTLHFDQPNRKLSPAFHQALLSFCRMSADSRLGSEVSRIADSEKSVMLMLGRCLPHIVPNVLLAKREELIPLILCTACLHPEPKERDQLLHILFNLIKRPDDEQRQMILTGCVAFARHVGPTRVEAELLPQCWEQINHKYPERRLLVAESCGALAPYLPKEIRSSLVLSMLQQMLMEDKADLVREAVIKSLGIIMGYIDDPDKYQQGFELLLSALGDPSERVVSATHQVFLPAYAAWTTELGNLQSHLIPTLLNKIEKLLREGEHGLDEHKLHMYLSALQSLIPSLFALVLQNAPFSSKAKLHGEVPHIEVTRFPRPMSPLQDVSTIIGSREQLAVLLQLYDYQLEHEGTTGWESLLWVVNQLLPQLIEIVGKINVTSTACVHEFSRFFWRLCRTFGKIFTNTKVKPQFQEILRLSEENIDSSAGNGVLTKATVPIYATGVLTCYIQEEDRKLLVGFLEDVMTLLSLSHAPLDSLKASFVELGANPAYHELLLTVLWYGVVHTSALVRCTAARMFELLVKGVNETLVAQRVVPALITLSSDPEISVRIATIPAFGTIMETVIQRELLERVKMQLASFLEDPQYQDQHSLHTEVIRTFGRVGPNAEPRFRDEFVIPHLHKLALVNNLQIVDSKKLDIATHLFEAYSALSCCFISEDLMVNHFLPGLRCLRTDMEHLSPEHEVILSSMIKECEQKVENKTVQEPPGSMSIAASLVSEDTKTKFLNKMGQLTTSGAMLANVFQRKK
As for B1, the binding result is “binds”.
